At least one structure is not confirmed: it was looked up by name or label, or the drawing left a doubt.
System: primary mouse keratinocytes
Assay: Keratinocyte proliferation by thymidine incorporation
Type: cell-based
Conditions: 50, 100 and 200 nM for 20 min, measured eighteen hours after treatment

CN(CCOc1ccc(CC2SC(=O)NC2=O)cc1)c1ccccn1 (stereo not shown) [rosiglitazone]
keratinocyte proliferation (thymidine incorporation, FIG. 13): profound increase in keratinocyte proliferation

Source: US8367606B2, “Method and compositions for prevention and treatment of diabetic and aged skin” (HealOr Ltd., priority 2005, dated 2013)
